Source: patent US20180207228A1, “PEPTIDE COMBINATIONS AND USES THEREOF FOR TREATING GRASS ALLERGY” (ALK-Abelló A/S, priority 2015, published 2018)
Where no end group is shown, it is not given here.

System: purified class II MHC molecules
Test: Competitive MHC class II binding assay (IC50, measured HLA coverage)
Set-up: species or system human
Conditions: worldwide population, binding = IC50 below 300 nM

Row | Compound | Measured binding coverage 25 alleles
1 | EWVAMTKGEGGVWTFDSEEP-OH [compound 214] | 81%
2 | KDKWIELKESWGAIWRIDTP-OH [peptide 210] | 92%
3 | SGKAFGAMAKKGQED-OH [compound 134, SGKAFGAMAKKGQED] | 47%
4 | YIITPTNVSHIQSAVVSGRR-OH [peptide 223] | 99%
5 | TPFPHRKGVLFNIQYVNYWF-OH [peptide 227] | 97%
6 | EAKYDAYVATLSEALRIIAG-OH [peptide 233] | 99%
7 | GDEQKLRSAGELELQFRRVK-OH [compound 206] | 70%
8 | TKKGNVWEVKSSKPLVGPFN-OH [peptide 219] | 91%
9 | KYDAYVATLTEALR-OH [compound 137] | 98%
10 | TDDNEEPIAPYHFDLSGHAF-OH [peptide 204] | 78%
11 | AGELELQFRRVKSKYPEGTK-OH [peptide 207] | 71%
12 | TSKLDAAYKLAYKTAEGATP-OH [peptide 232] | 93%
13 | VATLSEALRIIAGTLEVHAV-OH [compound 67] | 94%
14 | KSSWGAIWRIDPKKPLK-OH [compound 136] | 76%
15 | YHFDLSGHAFGAMAKKGDEQ-OH [peptide 205] | 88%
16 | KEDFLGSLVKEIPPRLLYAK-OH [peptide 222] | 100%
17 | GSDPKKLVLNIKYTRPGDSL-OH [peptide 217] | 98%
18 | DKYRTFVATFGAASNKAFAE-OH [peptide 231] | 99%
19 | GRGSGSSFEIKSTKPEASSG-OH [compound 202] | 84%
20 | CC[C@H](C)[C@H](NC(=O)[C@H](C)NC(=O)[C@H](CCCCN)NC(=O)[C@@H](NC(=O)[C@H](CC(C)C)NC(=O)[C@H](C)NC(=O)[C@H](C)NC(=O)[C@H](CCC(=O)O)NC(=O)[C@H](Cc1ccccc1)NC(=O)[C@@H](NC(=O)[C@H](C)NC(=O)[C@H](Cc1ccc(O)cc1)NC(=O)[C@H](CCCCN)NC(=O)[C@@H](NC(=O)[C@H](CCC(=O)O)NC(=O)[C@@H]1CCCN1C(=O)[C@@H](N)CCCCN)C(C)C)C(C)C)[C@@H](C)O)C(=O)N[C@H](C(=O)O)[C@@H](C)O [peptide 142, reference compound] | 100%
21 | GFGMLLRKYGIAAENVIDVK-OH [peptide 225] | 98%

Row | Compound | Measured binding coverage 25 alleles
22 | WLDAKSTWYGKPTGAGPKDN-OH [peptide 201] | 47%
23 | VRYTTEGGTKTEAEDVIPEG-OH [peptide 212] | 40%
24 | HGSEEWEPLTKKGNVWEVKS-OH [compound 218] | 39%
25 | AGYTPAAPAGAEPAGKATTE-OH [peptide 228] | 69%
26 | SMGDDHFWAVRGGGGESFGI-OH [peptide 226] | 57%
27 | PANDKFTVFEAAFNNAIKAS-OH [compound 70] | 99%
28 | EIKSTKPEASSGEPVVVHIT-OH [peptide 203] | 71%
29 | KKPEVKYAVFEAALTKAIT-OH [compound 143] | 99%
30 | LKKAVTAMSEAEK-OH [compound 139] | 62%
31 | STGGAYESYKFIPALEAAVK-OH [compound 71] | 99%
32 | PEVKYAVFEAALTKAIT-OH [compound 140] | 99%
33 | EQKLIEKINAGFKAALAAAA-OH [peptide 229] | 98%
34 | KFIPTLVAAVKQAYAAKQ-OH [compound 138] | 99%
35 | FIPMKSSWGA-OH [compound 135] | 19%
36 | LVKYVNGDGDVVAVDIKEKG-OH [peptide 209] | 85%
37 | KSSKPLVGPFNFRFMSKGGM-OH [peptide 220] | 96%
38 | FAVVDLNKMRAVWVDGKART-OH [peptide 224] | 99%
39 | GFKAALAAAAGVPPADKYRT-OH [peptide 230] | 92%
40 | CC[C@H](C)[C@H](NC(=O)[C@@H](NC(=O)[C@H](CC(=O)O)NC(=O)[C@H](CCC(=O)O)NC(=O)[C@H](C)NC(=O)[C@H](CCC(=O)O)NC(=O)[C@@H](N)[C@@H](C)O)C(C)C)C(=O)N1CCC[C@H]1C(=O)N[C@@H](CCC(=O)O)C(=O)NCC(=O)N[C@@H](Cc1c[nH]c2ccccc12)C(=O)N[C@@H](CCCCN)C(=O)N[C@@H](C)C(=O)N[C@@H](CC(=O)O)C(=O)N[C@H](C(=O)N[C@@H](CO)C(=O)N[C@@H](Cc1ccc(O)cc1)C(=O)N[C@@H](CCC(=O)O)C(=O)N[C@@H](CO)C(=O)N[C@@H](CCCCN)C(=O)O)[C@@H](C)O [peptide 213] | 58%
41 | WGAIWRIDTPDKLTGPFTVR-OH [peptide 211] | 90%
